Test results taken from patent US20230382953A1.
Results are given in words; binding and its absence hold for the method and conditions named. Binding seen in cells or lysates may run through a third protein. These calls come from enrichment with a bait or labelling near it, and not all partners need be listed.

Chains of the proteins cited; added tags and fusions are not shown.
UniProt Q15596: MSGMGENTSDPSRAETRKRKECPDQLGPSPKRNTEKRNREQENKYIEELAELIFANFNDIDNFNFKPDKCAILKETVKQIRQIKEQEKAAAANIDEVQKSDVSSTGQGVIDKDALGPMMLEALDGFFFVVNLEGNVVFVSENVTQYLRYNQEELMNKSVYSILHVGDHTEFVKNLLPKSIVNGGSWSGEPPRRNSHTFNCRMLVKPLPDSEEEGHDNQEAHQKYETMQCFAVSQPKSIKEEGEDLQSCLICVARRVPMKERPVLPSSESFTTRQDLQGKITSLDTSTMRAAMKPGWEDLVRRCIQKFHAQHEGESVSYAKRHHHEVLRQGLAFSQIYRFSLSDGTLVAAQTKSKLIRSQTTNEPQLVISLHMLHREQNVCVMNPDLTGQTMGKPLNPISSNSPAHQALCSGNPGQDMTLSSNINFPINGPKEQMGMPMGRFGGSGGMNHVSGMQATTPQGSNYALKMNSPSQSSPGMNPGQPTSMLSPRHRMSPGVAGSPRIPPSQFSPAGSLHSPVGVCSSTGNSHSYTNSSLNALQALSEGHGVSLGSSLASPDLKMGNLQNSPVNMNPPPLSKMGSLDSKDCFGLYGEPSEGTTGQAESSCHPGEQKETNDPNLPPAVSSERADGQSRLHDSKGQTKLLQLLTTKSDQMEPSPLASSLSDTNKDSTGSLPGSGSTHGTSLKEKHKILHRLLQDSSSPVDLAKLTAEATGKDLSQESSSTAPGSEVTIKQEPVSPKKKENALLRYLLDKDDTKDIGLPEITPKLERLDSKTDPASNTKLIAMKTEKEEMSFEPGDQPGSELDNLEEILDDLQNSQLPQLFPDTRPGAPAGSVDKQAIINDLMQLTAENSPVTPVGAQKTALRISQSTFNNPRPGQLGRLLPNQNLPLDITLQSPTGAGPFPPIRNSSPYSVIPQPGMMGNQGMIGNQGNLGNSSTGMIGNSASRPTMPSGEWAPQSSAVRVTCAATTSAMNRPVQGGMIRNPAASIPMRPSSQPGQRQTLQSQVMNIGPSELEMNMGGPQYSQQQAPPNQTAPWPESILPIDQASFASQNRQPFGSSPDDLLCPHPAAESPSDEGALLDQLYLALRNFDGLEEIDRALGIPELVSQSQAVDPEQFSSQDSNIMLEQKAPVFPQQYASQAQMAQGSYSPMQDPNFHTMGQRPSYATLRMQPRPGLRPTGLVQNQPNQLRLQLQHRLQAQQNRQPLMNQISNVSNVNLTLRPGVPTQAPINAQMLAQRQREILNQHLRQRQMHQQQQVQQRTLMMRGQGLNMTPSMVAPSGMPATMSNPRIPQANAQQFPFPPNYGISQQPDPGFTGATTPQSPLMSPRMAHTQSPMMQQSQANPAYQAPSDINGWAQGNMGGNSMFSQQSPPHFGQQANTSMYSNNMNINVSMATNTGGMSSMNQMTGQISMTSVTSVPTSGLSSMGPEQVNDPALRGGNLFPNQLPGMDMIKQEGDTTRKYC
UniProt F5HCV3: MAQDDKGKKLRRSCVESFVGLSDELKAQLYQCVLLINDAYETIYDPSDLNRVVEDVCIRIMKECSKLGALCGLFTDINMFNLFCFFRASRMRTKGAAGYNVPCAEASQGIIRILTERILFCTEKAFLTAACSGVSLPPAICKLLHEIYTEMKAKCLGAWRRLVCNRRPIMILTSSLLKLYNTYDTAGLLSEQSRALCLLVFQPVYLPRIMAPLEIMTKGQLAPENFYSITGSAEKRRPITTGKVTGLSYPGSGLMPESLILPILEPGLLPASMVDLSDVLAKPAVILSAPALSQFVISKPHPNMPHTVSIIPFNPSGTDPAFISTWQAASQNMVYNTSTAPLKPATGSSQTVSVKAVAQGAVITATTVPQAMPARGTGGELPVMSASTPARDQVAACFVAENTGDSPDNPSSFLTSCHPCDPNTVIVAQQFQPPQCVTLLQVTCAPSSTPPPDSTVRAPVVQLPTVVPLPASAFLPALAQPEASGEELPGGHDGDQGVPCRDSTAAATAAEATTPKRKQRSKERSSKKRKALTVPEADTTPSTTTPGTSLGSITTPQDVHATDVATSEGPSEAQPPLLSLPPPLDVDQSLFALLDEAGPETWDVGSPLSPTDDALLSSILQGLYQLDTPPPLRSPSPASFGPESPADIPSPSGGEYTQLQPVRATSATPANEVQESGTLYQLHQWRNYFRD

Target: NCoA2 (UniProt Q15596)
Assay: biochemical and genetic approaches (GST pull-down, ChIP with mass spectrometry; FIG. 1)

With KSHV ORF50 (from UniProt F5HCV3 1-691) the binding was “binds”.
